Measurements reported in PubChem BioAssay AID743121 (NCATS, 2013)

Assay: 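Partners whose loss is lethal together with topoisomerase I blockade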 (primary screen)
Cell system: MDA-MB-231 cells, a human breast cancer line
Reagent: single siRNA against human genes, 20 nM siRNA (0.8 pmol per well)
Duration: 120 h (drug added 48 h after transfection, read 72 h later)
Treatment: camptothecin 20 nM (about EC30) for 72 h; vehicle 0.1% DMSO in parallel plates
Measured: 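CellTiter-Glo ATP signal, scaled to control siRNA as percent viability; sensitisation given as log2 of untreated divided by camptothecin-treated viability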
Direction: log2 vehicle/camptothecin viability: higher = stronger sensitisation to camptothecin; viability with camptothecin and viability without drug: higher = more viable cells
Call rule: 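Each gene scored by redundant siRNA activity (RSA) over its individual siRNA ratios; a gene is called active at p < 0.001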
The deposit covers about 26,000 reagents; this is a part drawn at random. 167 of all reagents (0.63%) were called active. 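Calls are per gene from RSA p-values that are not deposited; an individual active-marked siRNA can sensitise only weakly.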 Unmarked entries are inactive. The numbers tell different reagents against one gene apart.

gene	reagent no.	log2 vehicle/camptothecin viability	viability with camptothecin (% of control)	viability without drug (% of control)
UMPS	1	-0.0867	78.5	73.9
UMPS	2	-0.0967	73.8	69
UMPS	3	-0.104	67.5	62.8
MLH3	1	-0.0355	98.2	95.8
MLH3	2	-0.0247	62.6	61.6
MLH3	3	-0.32	74.9	60
ARFIP2	1	-0.0287	81.9	80.3
ARFIP2	2	-0.165	87.9	78.4
ARFIP2	3	0.188	87.9	100
ARFIP2	4	0.128	15.9	17.4
RNF213	1	-0.388	102	78.1
RNF213	2	-0.383	102	78.3
RNF213	3	-0.289	65.7	53.8
DNAI1	1	-0.374	63.9	49.3
DNAI1	2	-0.136	80.4	73.2
DNAI1	3	-0.11	96.2	89.1
DNAI1	4	0.734	29.3	48.7

Sorted by “viability with camptothecin (% of control)” (ascending): some entries from above.
gene	reagent no.	log2 vehicle/camptothecin viability	viability with camptothecin (% of control)	viability without drug (% of control)
DNAI1	1	-0.374	63.9	49.3
RNF213	3	-0.289	65.7	53.8
RNF213	1	-0.388	102	78.1
RNF213	2	-0.383	102	78.3

Further records follow:
gene	reagent no.	log2 vehicle/camptothecin viability	viability with camptothecin (% of control)	viability without drug (% of control)
PIP4K2B	1	-0.293	87.8	71.7
PIP4K2B	2	0.186	17.4	19.8
PIP4K2B	3	-0.408	89.2	67.2
PIP4K2B	4	-0.121	105	96.3
LPAR6	1	-0.357	77.7	60.7
LPAR6	2	0.544	34.6	50.4
LPAR6	3	0.25	56.7	67.4
LPAR6	4	-0.102	63.5	59.1
LIN9	1	0.102	81.5	87.4
LIN9	2	-0.609	99.7	65.4
LIN9	3	-0.405	43.1	32.6
LIN9	4	-0.115	90	83.1
